We go through one molecule from PMC6335052.

Results are given in words; binding and its absence hold for the method and conditions named. Where a sequence is shown, tags or fusion partners need not be part of it.

This assay addresses T1, Piwi, yeast two-hybrid fusion (Drosophila melanogaster), Q9VKM1.
T1 chain: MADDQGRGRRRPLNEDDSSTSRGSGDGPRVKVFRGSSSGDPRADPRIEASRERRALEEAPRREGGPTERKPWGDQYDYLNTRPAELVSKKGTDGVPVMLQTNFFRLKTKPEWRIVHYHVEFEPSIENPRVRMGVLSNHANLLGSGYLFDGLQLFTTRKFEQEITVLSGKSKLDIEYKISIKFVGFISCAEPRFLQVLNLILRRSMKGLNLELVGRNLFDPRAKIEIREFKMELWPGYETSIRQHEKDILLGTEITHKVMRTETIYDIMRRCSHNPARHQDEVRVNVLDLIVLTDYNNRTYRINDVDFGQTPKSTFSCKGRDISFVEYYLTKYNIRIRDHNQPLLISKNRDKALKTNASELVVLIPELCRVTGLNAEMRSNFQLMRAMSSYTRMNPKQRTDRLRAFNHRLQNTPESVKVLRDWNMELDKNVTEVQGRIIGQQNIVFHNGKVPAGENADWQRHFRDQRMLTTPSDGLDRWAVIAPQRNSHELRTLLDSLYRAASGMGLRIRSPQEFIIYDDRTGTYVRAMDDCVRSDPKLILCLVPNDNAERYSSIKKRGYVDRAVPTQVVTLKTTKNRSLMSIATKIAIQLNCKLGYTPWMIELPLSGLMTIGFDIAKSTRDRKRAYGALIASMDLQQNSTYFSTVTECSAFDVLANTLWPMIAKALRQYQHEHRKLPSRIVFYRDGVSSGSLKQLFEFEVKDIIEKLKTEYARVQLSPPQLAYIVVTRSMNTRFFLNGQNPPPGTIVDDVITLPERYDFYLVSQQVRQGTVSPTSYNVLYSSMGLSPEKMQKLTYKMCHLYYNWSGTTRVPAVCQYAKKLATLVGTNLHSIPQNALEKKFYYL
Nature of the assay: two-hybrid; pGBKT7 bait and pGAD prey plasmids co-transformed into AH109 yeast; colonies from SC-WL picked onto selective SC-WLH or SC-WLHA plates. The settings on record: remark: other sources report otherwise.

B1: Heterochromatin Protein 1a (HP1a), yeast two-hybrid fusion, P05205 1-206 (protein)
chain: MGKKIDNPESSAKVSDAEEEEEEYAVEKIIDRRVRKGKVEYYLKWKGYPETENTWEPENNLDCQDLIQQYEASRKDEEKSAASKKDRPSSSAKAKETQGRASSSTSTASKRKSEEPTAPSGNKSKRTTDAEQDTIPVSGSTGFDRGLEAEKILGASDNNGRLTFLIQFKGVDQAEMVPSSVANEKIPRMVIHFYEERLSWYSDNED
For B1, the binding entry is reported as “no binding”.
